This passage reports cell number change and AC50 results from PubChem BioAssay AID2685 (National Center for Advancing Translational Sciences (NCATS), 2010).

The assay in a line: qHTS Assay for Lipid Storage Modulators in Drosophila S3 Cells.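 As to cell number change: cells counted by Cell Tracker Red CMTPX staining in the red channel.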 Conditions: BODIPY lipid droplet fluorescence, 18-24 h; for cell number change: measured here: cell count max response, cells fed with added oleic acid. The method, boiled down: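 Drosophila S3 cells got compounds at several concentrations plus oleic acid (400 uM solution). Laser-scanning cytometry with 488 nm excitation read lipid droplets at 500-530 nm and cells at 575-640 nm. Percent activity was relative to 20 uM Triacsin C.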
For orientation: In qHTS, concentration-response curves come from the screen itself.

Setting [1] is: measured here: lipid fluorescence (Fed channel) AC50, cells fed with added oleic acid.
The mark [2] stands for this setting: measured here: cell number channel AC50, cells fed with added oleic acid.

This is one part of the list. Further columns of the screen follow, without active or inactive calls. The list favours compounds with an active or inconclusive main result. Words in brackets tell the shape of the fitted curve; partial curves, single points and poor fits give uncertain potencies.

The AC50 is the concentration giving half of the maximal activity seen. Lower therefore signals activity at low concentration. With `CCC(C)n1c(SCC(=O)NCCc2ccc(S(N)(=O)=O)cc2)nc2ccsc2c1=O` (stereo not drawn), the cell number change was found to be 18%. For the same compound, under setting [1], the AC50 was 0.731 µM [falling, full curve, poor fit].

On to `CCCOc1ccc(-c2nc(C#N)c(N3CCC(C(N)=O)CC3)o2)cc1`, for which the cell number change is -28.8%.

Turning to `Oc1ccc(O)c(-c2cnns2)c1`, the cell number change is 39.5%. Also, under setting [2], the AC50 was 18.4 µM [rising, single point]. Besides, under setting [1], the AC50 was 5.17 µM [rising, partial curve].

As for `Cc1nn(C(C)(C)C)c(OC(=O)c2ccc(Br)o2)c1Sc1ccccc1`, the cell number change turned out to be 1.03%. In addition, under setting [2], the half-maximal activity concentration (AC50) was 1.16 µM [falling, full curve, poor fit]. In addition, the AC50 under setting [1] was 0.116 µM [falling, full curve].

Consider `Cc1nc(NC(=O)c2c(-c3ccccc3Cl)noc2C)sc1C`, for which the cell number change is -9.83%. Besides, the AC50 under setting [1] is 9.2 µM [falling, single point].

Turning to `CCCCNC(=S)Nc1ccc2nc3n(c(=O)c2c1)CCCCC3`, the cell number change is -20.5%. Besides, the AC50 under setting [1] was 0.82 µM [falling, single point].

In the case of `CC(NC(=O)CSc1nnc(-c2cc3cc(Cl)ccc3o2)n1C)c1ccccc1` (stereo not drawn), the cell number change is -8.16%. In addition, the AC50 under setting [1] is 29.1 µM [falling, single point].

Turning to `OCCC1CN(Cc2ccc(Oc3ncccn3)cc2)CCN1Cc1ccc(F)c(F)c1` (stereo not drawn), the cell number change was -1.29%. Also, under setting [2], the AC50 is 3.66 µM [rising, single point].

In the case of `COc1ccc(NS(=O)(=O)c2cccc(C(=O)NNC(=O)c3ccc(=O)[nH]c3)c2)cc1`, the cell number change was -3.23%. Further, the concentration at half-maximal activity (AC50) under setting [1] is 2.91 µM [rising, single point].

As to `CCC(C(=O)Nc1cccnc1)n1c(=O)[nH]c2ccccc2c1=O` (stereo not drawn), the AC50 under setting [1] was 29.1 µM [falling, single point].

Regarding `CCCN1CCc2nc(SCC(=O)Nc3ccc(C)c(Cl)c3)[nH]c(=O)c2C1`, the cell number change is -2.59%. For the same compound, the AC50 under setting [1] was 29.1 µM [falling, single point].

Regarding `O=C(Cc1cccc2ccccc12)Nc1ccc2c(c1)C(=O)NC2=O`, the cell number change came out at 5.86%. The AC50 under setting [1] is 0.116 µM [rising, full curve, poor fit].

Regarding `Cc1ccc(-c2nnn(CC(=O)NC3CCN(Cc4ccccc4)CC3)n2)cc1`, the cell number change was -20.8%. Moreover, the half-maximal activity concentration (AC50) under setting [1] was 18.4 µM [falling, single point].

In the case of `CC(Oc1ccc(Cl)cc1Cl)C(=O)NCCC1=CCCCC1` (stereo not drawn), the cell number change is -11.1%. Further, the AC50 under setting [2] was 0.13 µM [rising, full curve, poor fit].

With `Cc1ccc(C)c(OCC(=O)Nn2c(C)nc3ccccc3c2=O)c1`, the cell number change worked out at 14.9%. Besides, the concentration at half-maximal activity (AC50) under setting [1] is 10.3 µM [rising, partial curve].

Consider `CC(=O)N1CCc2ccc(NC(=O)c3c(-c4c(Cl)cccc4Cl)noc3C)cc21`, for which the cell number change was 0.192%. For the same compound, under setting [2], the concentration at half-maximal activity (AC50) is 5.8 µM [falling, partial curve]. Besides, under setting [1], the AC50 is 1.84 µM [falling, partial curve].

Regarding `CC(C)NC(=O)NC(=O)COC(=O)c1ncc(Cl)c(Cl)c1Cl`, the cell number change is -11.3%. Also, under setting [2], the concentration at half-maximal activity (AC50) was 0.00461 µM [falling, full curve, poor fit].

For the compound `COc1ccc(CNC(=O)[C@H](C)NC(=O)C2CC(=O)N(c3ccc4c(c3)OCO4)C2)cc1` (stereo partly drawn), the cell number change is 75.9%. Further, under setting [2], the half-maximal activity concentration (AC50) was 29.1 µM [rising, single point].

Regarding `O=C(COc1nnnc2ccccc12)N1CCCc2ccccc21`, the cell number change was -24.2%. Moreover, under setting [2], the concentration at half-maximal activity (AC50) is 0.146 µM [falling, full curve, poor fit]. Also, under setting [1], the AC50 is 6.51 µM [falling, single point].

In the case of `CCOc1ccccc1C(=O)N1CCN(c2ccc(C(F)(F)F)cn2)CC1`, the cell number change was 41.9%. Besides, the AC50 under setting [2] is 13 µM [rising, partial curve]. Also, under setting [1], the AC50 was 13 µM [rising, partial curve].

Consider `OCCn1c(CSc2nc3ccccc3n2CCO)nc2ccccc21`, for which the cell number change is 7.29%. For the same compound, under setting [1], the AC50 was 0.00461 µM [rising, full curve, poor fit].

Consider `CCc1ccc2c(c1)[C@H]1OCC[C@H]1[C@@H](c1cccs1)N2`, for which the AC50 under setting [1] was 6.51 µM [rising, single point].

Consider `COc1ccc(OCCOc2ccc(S(=O)(=O)N3CCCC3)cc2C(N)=O)cc1`, for which the cell number change was -8.27%. The AC50 under setting [1] was 1.03 µM [rising, full curve].

`O=C(O)CN1C(=O)c2ccc(Oc3ccc([N+](=O)[O-])cc3)cc2C1=O`: the cell number change was -1.06%. Further, the AC50 under setting [1] is 29.1 µM [rising, single point].

In the case of `CS(=O)(=O)N(CC(=O)N/N=C/c1cc([N+](=O)[O-])ccc1Cl)c1ccccc1`, the cell number change came out at 19.2%. Further, under setting [1], the AC50 was 1.84 µM [rising, partial curve].

As for `CCOC(=O)N1CCN(C(=O)COC(=O)c2cc(Cl)c(O)c(Cl)c2)CC1`, the cell number change was found to be 33.1%. For the same compound, the AC50 under setting [1] was 14.6 µM [rising, single point].

As for `CC(=O)c1ccc(-n2cc(-c3ccc(C(C)(C)C)cc3)[n+]3c2SCCC3)cc1`, the cell number change is -156%. The AC50 under setting [2] is 29.1 µM [falling, single point]. In addition, the AC50 under setting [1] was 23.1 µM [falling, single point].

On to `CC1=CCC2C(=O)N(c3cccc(C(=O)Nc4ccccc4Cl)c3)C(=O)C2C1` (stereo not drawn), for which the cell number change is -32.1%. Moreover, the half-maximal activity concentration (AC50) under setting [1] was 35.5 µM [falling, single point].

On to `Cn1c(CCNC(=O)c2ccccc2)nc2cc(NC(=O)c3ccco3)ccc21`, for which the cell number change was found to be 21.8%. Moreover, under setting [1], the concentration at half-maximal activity (AC50) is 6.51 µM [rising, partial curve, poor fit].

With `CCN1CCN(C(=O)c2ccc3c(=O)n(CCc4ccccc4)c(=O)[nH]c3c2)CC1`, the cell number change turned out to be 7.21%.

For the compound `Nc1nc(Nc2ccccc2)nc(NCc2ccccc2)c1[N+](=O)[O-]`, the cell number change was -36.1%. The AC50 under setting [1] is 32.6 µM [falling, partial curve, poor fit].

`O=C(Nc1ccccc1N1CCCC1)C1CCN(S(=O)(=O)c2ccc(F)cc2)CC1`: the cell number change amounted to 8.64%. Besides, the AC50 under setting [1] was 16.4 µM [rising, single point].

Take `CCC(C)NC(=O)CN(C1CCCCC1)S(C)(=O)=O` (stereo not drawn): the cell number change is -65.9%. Also, under setting [2], the AC50 was 2.31 µM [falling, full curve]. Under setting [1], the concentration at half-maximal activity (AC50) was 2.06 µM [falling, full curve, poor fit].

For the compound `Cc1ccc(NC(=O)N2CCN(C)CC2)cc1NC(=O)N1CCN(C)CC1`, the cell number change was -19.9%. For the same compound, under setting [2], the half-maximal activity concentration (AC50) is 0.00461 µM [falling, full curve, poor fit].

As for `O=C(Nc1ccccc1)N1CCC(n2c(=O)[nH]c3ccccc32)CC1`, the cell number change is -7.56%.

Turning to `COc1ccc(C(=O)Nc2nc3ccccc3c(=O)[nH]2)cc1`, the cell number change came out at 57.6%. Under setting [2], the AC50 was 1.16 µM [rising, full curve]. Under setting [1], the AC50 was 3.26 µM [rising, partial curve].

Turning to `COc1ccc(Cl)cc1NC(=S)NCc1cccnc1`, the cell number change is -10.1%.

On to `Cc1ccc(NC(=O)CN2CCN(Cc3ccccc3)CC2)cc1F`, for which the cell number change worked out at 13.5%. The AC50 under setting [2] is 2.59 µM [rising, partial curve, poor fit]. Also, under setting [1], the AC50 was 6.51 µM [rising, partial curve].

For `O=C(COC(=O)c1ccc(F)cc1Cl)NCc1ccco1`, the cell number change was 12%.

`COc1ccccc1-c1cc(N)n(S(=O)(=O)c2cccc3nsnc23)n1`: the AC50 is, setting by setting: under setting [2], 0.366 µM [rising, full curve]; under setting [1], 5.17 µM [rising, partial curve, poor fit].

For the compound `CCn1c(SC)nnc1C1CCN(CC(=O)Nc2ccccc2N2CCOCC2)CC1`, the cell number change was determined as 11.2%. The AC50 under setting [1] was 0.651 µM [falling, partial curve].

`O=C(CSc1n[nH]c(-c2cccnc2)n1)Nc1ccc([N+](=O)[O-])cc1Br`: the cell number change turned out to be 30.2%. Besides, the concentration at half-maximal activity (AC50) under setting [2] is 29.1 µM [rising, single point].

With `O=C(CCC(=O)c1ccccc1)Nc1ccccc1OC(F)F`, the cell number change was 38.7%.

Consider `Cc1[nH]c(C)c(S(=O)(=O)Nc2ccccc2)c1C(=O)N1CCCC1`, for which, under setting [1], the AC50 was 6.51 µM [rising, single point].

Regarding `O=C(NCC(=O)N(c1ccc2c(c1)OCO2)C(C(=O)NC1CCCC1)c1ccncc1)c1ccco1` (stereo not drawn), the cell number change stood at 23.6%. Also, the AC50 under setting [1] is 1.64 µM [rising, partial curve, poor fit].

Consider `[O-]C1=N/[N+](=C/c2ccccc2)CC1`, for which the cell number change was found to be 19.1%. For the same compound, the half-maximal activity concentration (AC50) under setting [1] is 25.9 µM [rising, single point].

For the compound `Oc1c(C(c2ccccn2)N2CCCCC2)cc(Cl)c2cccnc12` (stereo not drawn), the cell number change was -0.0963%. Also, the AC50 under setting [1] is 0.00517 µM [rising, full curve, poor fit].

Take `Cc1cc(C(F)(F)F)nn1CC(=O)N1CCCC1`: the cell number change is -11.7%. Besides, the AC50 under setting [2] is 0.184 µM [falling, single point]. Besides, the concentration at half-maximal activity (AC50) under setting [1] was 0.326 µM [falling, partial curve].

For the compound `COc1ccc(/C=C/C(=O)c2c(O)cc(C)oc2=O)c(OC)c1`, the cell number change stood at 12%. The half-maximal activity concentration (AC50) under setting [1] is 18.4 µM [falling, single point].

For `CCN(CC)c1ccc(NC(=O)c2cccnc2)cc1`, the AC50 reads like this: under setting [2], 0.58 µM [rising, single point]; under setting [1], 0.82 µM [rising, partial curve, poor fit].

Turning to `COc1ccc2c(c1)C(C)CC(C)(C)N2C(=O)CSc1ncn[nH]1` (stereo not drawn), the cell number change is 32.7%. Further, the AC50 under setting [2] is 3.66 µM [rising, single point]. For the same compound, under setting [1], the AC50 was 5.8 µM [rising, single point].

For `O=C(CC1C(=O)NCCN1Cc1ccc(Cl)c(F)c1)NC1CCC1` (stereo not drawn), the cell number change amounted to 6.6%. For the same compound, the AC50 under setting [1] was 0.58 µM [falling, single point].

Consider `CC(C)c1ccccc1OCCNS(C)(=O)=O`, for which the cell number change stood at 19.2%. In addition, the AC50 under setting [1] was 0.00461 µM [rising, full curve, poor fit].

On to `Cc1cc(C)c(OCCN(C)Cc2ccccc2)c(Br)c1`, for which the cell number change is -21.1%.

For `CSc1ccc(/C=C2\CCn3c2nc2cc(C(=O)O)ccc2c3=O)cc1`, the cell number change was determined as 36.2%. Moreover, the AC50 under setting [2] was 1.84 µM [rising, partial curve, poor fit].

For the compound `O=C1c2ccccc2NC(c2ccc3c(c2)OCCO3)N1c1ccc2c(c1)OCCO2` (stereo not drawn), the cell number change worked out at 8.43%. Besides, the AC50 under setting [1] was 18.4 µM [rising, partial curve].

`COc1ccc(Cl)cc1NC(=O)CN1c2ccccc2CC1C` (stereo not drawn): the cell number change was -40.7%. Besides, the AC50 under setting [2] is 23.1 µM [falling, single point]. Also, the AC50 under setting [1] was 23.1 µM [falling, single point].

With `NC(=O)CSc1ccc(F)cc1`, the cell number change was 11.3%. The AC50 under setting [1] is 4.61 µM [falling, single point].
